PubChem BioAssay AID504784, Drosophila RNAi Screening Center | 2011

Aim: 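Fly genes whose silencing alters how much lipid cells keep in droplets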 (primary screen)
System: Drosophila Kc167 embryonic cells
Knock-down reagent: long dsRNA against Drosophila genes, about 250 ng dsRNA per well
Timing: 4 days
Treatment: cells fed 400 µM oleic acid bound to BSA
Measured: 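Microscope images give a droplet-to-nucleus area ratio, taken as log and converted to a screen-wide B-score; higher values mean greater lipid storage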
Direction: droplet/nuclear area B-score: higher = more stored lipid (overstorage)
In all, the deposit lists about 17,000 reagents; below is a random part of those with a known target gene and a result. 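Each column is one replicate's B-score; the combined score over replicates was not deposited, so single values may mislead.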 A plus sign joins genes that one reagent is predicted to hit. Not all columns of the deposit are shown.

Depletion of Klp64D (GeneID 38611) [DRSC11204] came out at: droplet/nuclear area B-score, replicate 1 = -1.23.
Pino (GeneID 33288) [DRSC00038] gave droplet/nuclear area B-score, replicate 1 = -4.85.
Pino (GeneID 33288) [DRSC00662] scored droplet/nuclear area B-score, replicate 1 = 5.08.
After knock-down of Cse1 (GeneID 35016) [DRSC03287] the results were droplet/nuclear area B-score, replicate 1 = 1.07.
After knock-down of Arp5 (GeneID 42173) [DRSC16350], the screen gave droplet/nuclear area B-score, replicate 1 = -0.721.
slgA (GeneID 33117) [DRSC20586] showed droplet/nuclear area B-score, replicate 1 = 0.604.
Depletion of RpL22-like (GeneID 37684) [DRSC04582] came out at: droplet/nuclear area B-score, replicate 1 = -0.361.
With knock-down of arm (GeneID 31151) [DRSC18738] the results were droplet/nuclear area B-score, replicate 1 = 0.0131.
CG14636 (GeneID 40526) [DRSC12223] scored droplet/nuclear area B-score, replicate 1 = -1.01.
After knock-down of Fcp1 (GeneID 37925) [DRSC04121] the results were droplet/nuclear area B-score, replicate 1 = -0.419.
After knock-down of CG31600 (GeneID 318834) [DRSC22541], the record shows droplet/nuclear area B-score, replicate 1 = 0.622.
Knock-down of unc-5 (GeneID 36703) [DRSC05545] resulted in: droplet/nuclear area B-score, replicate 1 = -0.601.
With knock-down of unc-5 (GeneID 36703) [DRSC07711], the screen gave droplet/nuclear area B-score, replicate 1 = -0.705.
Depletion of unc-5 (GeneID 36703) [DRSC07712] resulted in: droplet/nuclear area B-score, replicate 1 = -0.507.
Depletion of CG10352 (GeneID 32147) [DRSC19353] gave: droplet/nuclear area B-score, replicate 1 = -0.304.
After knock-down of CG43736 + CG33692 (retired record) [DRSC18370] the results were droplet/nuclear area B-score, replicate 1 = -0.785.
After knock-down of CG43736 + CG33692 (retired record) [DRSC18371], the screen gave droplet/nuclear area B-score, replicate 1 = 0.36.
With knock-down of Ir60e (GeneID 37917) [DRSC04227], the record shows droplet/nuclear area B-score, replicate 1 = 1.61.
Silencing of l(2)05714 (GeneID 46066) [DRSC03118] gave: droplet/nuclear area B-score, replicate 1 = -1.29.
CG4983 (GeneID 34585) [DRSC02799] scored droplet/nuclear area B-score, replicate 1 = 0.0212.
CG13442 (GeneID 37349) [DRSC06402] gave droplet/nuclear area B-score, replicate 1 = -0.77.
Knock-down of CG31021 (GeneID 43638) [DRSC22319] resulted in: droplet/nuclear area B-score, replicate 1 = -0.0236.
For CG12728 (GeneID 31526) [DRSC17883], the entry reads droplet/nuclear area B-score, replicate 1 = -0.347.
Depletion of CG5281 (GeneID 41375) [DRSC15761] gave: droplet/nuclear area B-score, replicate 1 = 0.019.
With knock-down of CG8369 (GeneID 50005) [DRSC16413], the record shows droplet/nuclear area B-score, replicate 1 = -0.9.
Xport-A + Xport-B [DRSC15586] gave droplet/nuclear area B-score, replicate 1 = -0.126.
Ccdc58 + CG34116 [DRSC10105] gave droplet/nuclear area B-score, replicate 1 = 0.0309.
